Measured values from article PMC11876641, “Ephrin A1 functions as a ligand of EGFR to promote EMT and metastasis in gastric cancer” (The EMBO Journal, 2025).
These are yes or no findings as the source states them, for the method shown. For some assays here: Binding seen in cells or lysates may run through a third protein. Some binding calls cover weakened binding; strength is not graded here.

Chains of the proteins cited; added tags and fusions are not shown. Residues count along the entry.
UniProt P29317, residues 24-976: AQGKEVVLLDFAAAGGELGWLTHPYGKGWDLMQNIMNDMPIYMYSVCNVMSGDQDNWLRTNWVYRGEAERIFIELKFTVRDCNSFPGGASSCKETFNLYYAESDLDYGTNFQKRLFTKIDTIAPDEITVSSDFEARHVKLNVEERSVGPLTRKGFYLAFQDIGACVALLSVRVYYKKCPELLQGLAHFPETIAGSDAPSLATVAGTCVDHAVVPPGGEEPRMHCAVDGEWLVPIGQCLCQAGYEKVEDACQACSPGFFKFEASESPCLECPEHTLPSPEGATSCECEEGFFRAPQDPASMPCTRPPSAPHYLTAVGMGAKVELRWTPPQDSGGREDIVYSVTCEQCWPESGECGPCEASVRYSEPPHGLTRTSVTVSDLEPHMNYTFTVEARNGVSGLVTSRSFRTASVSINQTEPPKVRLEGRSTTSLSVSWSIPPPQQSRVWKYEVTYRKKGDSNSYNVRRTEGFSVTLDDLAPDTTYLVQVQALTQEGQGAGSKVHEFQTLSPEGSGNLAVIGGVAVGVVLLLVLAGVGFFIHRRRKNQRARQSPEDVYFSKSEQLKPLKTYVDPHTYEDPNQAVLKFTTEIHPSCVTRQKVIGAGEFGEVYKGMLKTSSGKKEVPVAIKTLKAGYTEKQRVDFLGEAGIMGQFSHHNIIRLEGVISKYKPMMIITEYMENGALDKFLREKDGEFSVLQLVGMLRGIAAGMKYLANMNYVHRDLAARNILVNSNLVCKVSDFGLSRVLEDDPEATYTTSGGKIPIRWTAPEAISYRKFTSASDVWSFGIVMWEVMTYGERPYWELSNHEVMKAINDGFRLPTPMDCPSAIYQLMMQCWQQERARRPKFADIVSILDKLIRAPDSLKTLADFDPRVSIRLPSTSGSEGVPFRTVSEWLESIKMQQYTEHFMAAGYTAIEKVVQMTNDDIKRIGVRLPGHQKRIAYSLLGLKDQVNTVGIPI

Columns and labels:
N-EGFR-Fc protein = N-EGFR-Fc protein (UniProt P00533); test: pull-down; Fc fusion protein and its partner incubated in lysis buffer overnight at 4 °C; Protein A/G magnetic beads; both orientations (N-EGFR-Fc with Ephrin A1; Ephrin A1-Fc with EGFR protein); both purified
Ephrin A1-Flag (human) = Ephrin A1-Flag (human) (UniProt P20827); test: co-IP; NCI-N87, MKN45, AGS and MKN45-EphA2-KO cells transfected with control-Flag or Ephrin A1-Flag; anti-Flag beads; lysis buffer 20 mM Tris pH 8.0, 150 mM NaCl, 1 mM EDTA, 1 mM EGTA, 1% Triton-100; western blot
EGFR-Flag = EGFR-Flag (UniProt P00533); test: co-IP; Ephrin A1-overexpressing MKN45 cells transfected with control-Flag or EGFR-Flag; immunoprecipitation by Flag; western blot
[1] = target: EGFR-Myc (wild type) (human) (UniProt P00533); test: co-IP; MKN45 cells transfected with EGFR-Myc wild type or deletion constructs; anti-Myc beads; western blot for Ephrin A1

In the case of “Ephrin A1 protein purified from bacteria (from UniProt P20827 19-182) (ligand)”, the binding (N-EGFR-Fc protein) is reported as “binds”.
In the case of “EphA2 (from UniProt P29317 24-976) (receptor)”, the binding (Ephrin A1-Flag (human)) is reported as “binds”.
In the case of “Epidermal growth factor receptor (EGFR) (from UniProt P00533 25-1210)”, the binding (Ephrin A1-Flag (human)) is reported as “binds”.
“Ephrin A1 (overexpressed, untagged) (from UniProt P20827 19-182) (ligand)” was tested, and the binding (EGFR-Flag) was “binds”.
For “Ephrin A1 (in MKN45 cells) (from UniProt P20827 19-182) (ligand)”, the binding [1] was “binds”.
